Measured values taken from PMC12440823.
No constants are given. Whether binding was seen depends on the method and setting. Binding seen in cells or lysates may run through a third protein. Here binding means that the protein was enriched with, or labelled near, the bait; the list need not be complete. Where a sequence is shown, tags or fusion partners need not be part of it.

Molecular target: T1, FLAG-tagged Ada3 (S. cerevisiae) (UniProt P32494)
T1 sequence: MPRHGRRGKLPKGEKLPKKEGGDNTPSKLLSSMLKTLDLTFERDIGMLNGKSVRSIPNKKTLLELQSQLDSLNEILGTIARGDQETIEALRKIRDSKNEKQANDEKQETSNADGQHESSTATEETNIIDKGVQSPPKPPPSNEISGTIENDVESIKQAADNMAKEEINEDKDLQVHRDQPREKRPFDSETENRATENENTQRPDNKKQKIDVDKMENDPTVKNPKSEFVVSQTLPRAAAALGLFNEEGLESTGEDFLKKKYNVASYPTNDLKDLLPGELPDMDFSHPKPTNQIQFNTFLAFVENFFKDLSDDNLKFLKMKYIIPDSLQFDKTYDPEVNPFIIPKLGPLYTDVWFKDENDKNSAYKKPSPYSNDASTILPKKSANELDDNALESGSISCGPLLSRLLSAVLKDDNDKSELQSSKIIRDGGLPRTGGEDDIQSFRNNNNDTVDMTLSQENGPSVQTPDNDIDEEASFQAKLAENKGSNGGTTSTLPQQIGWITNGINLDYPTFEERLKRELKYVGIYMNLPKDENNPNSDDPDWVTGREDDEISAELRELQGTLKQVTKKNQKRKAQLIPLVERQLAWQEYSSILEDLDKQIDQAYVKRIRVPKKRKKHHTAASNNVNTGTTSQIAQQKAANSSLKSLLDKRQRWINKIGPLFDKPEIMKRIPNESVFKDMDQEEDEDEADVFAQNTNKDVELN
Experiment: affinity purification with mass spectrometry; Ada3-3xFLAG captured on anti-FLAG-M2 beads (3 h, 4 °C) from benzonase-treated, precleared yeast lysate; cells grown under control conditions or 200 mM HU for 2 h; untagged BY4741 as background; interactors called by SAINT probability of 1

B1: SAGA subunit Spt8 (protein, UniProt P38915 1-602)
chain: MDEVDDILINNQVVDDEEDDEEMLSGLENDSKQDLEGNDDGGEDEEDDDDDDEDDDDDEDEREDDDEQEDDDGEDDAARMDKTATPTNEHQHDEQKAAAAGAGGAGDSGDAVTKIGSEDVKLSDVDGGVGSREASSSTHEASANGEVYEYYKHMLNAAQIADSYNIYPTAAIPIQTHVNALAVSRGLKYLFLGGSDGYIRKYDLLNTLEGKLSLTILQKHSLAESIQNAGILQSYWENEIPQKKSEMKLSANKTDYEPKVSPVHSLEVQSECLFILSGLQNGGITMQGVRYMEGSIAHYFKGRNGHTQIVNILRLNGQEDRFLSGSWDKRLLEWDLQTGDIVNEFKKSRSELSSLEMRPLYSSVDVSGNVNSGKENENADDDMDSLFGDEDEDEKQDAGNEPVETGDGSNGEENKEQISEESLNIVYDESVFMTSGLNGSVHIWDRRMTQSPALSLERGAGVPPWCLSACWGVDGDHVYAGRRNACVEQFDLKMPSKPIHNLKLPSISGPVSCVKAMPNNKHLLCASRDNIRLYNVEIAVDASNSTTKSSKVPFLIVPGHHGGIISNLYLDPTSRFIISTSGNRGWQGNSTDTTLIYDIDLE
- binding: binds
